According to the supplement of paper PMC10373366:
Where a name gives a salt, the structure may show the parent alone. The list shows a part of the results. Repeats are few or missing, and single values can be far off.

How the values were obtained:
[1] = system: A2780; assay: cell growth inhibition ratio vs untreated control (CCK8); higher = stronger inhibition of cell viability; conditions: 10 µM; 48 h
Protocol: (§1)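 Natural product library (Topscience) screened at 10 µM final concentration for 48 h on ovarian cancer A2780 cells and patient-derived ovarian cancer cells (PDC) in 96-well plates; viability read by CCK8 and reported as inhibition ratio (%) relative to untreated control. Single-dose primary screen.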

[2] = system: patient-derived ovarian cancer cells (PDC); assay: as above; conditions: 10 µM; 48 h
Protocol: as §1

| Structure (SMILES) | cell growth inhibition ratio [1] [%] | cell growth inhibition ratio [2] [%] |
| --- | --- | --- |
| CC1(C)CC[C@]2(C(=O)O)[C@H](O)C[C@]3(C)C(=CC[C@@H]4[C@@]5(C)CC[C@H](O)C(C)(C)[C@@H]5CC[C@]43C)[C@H]2C1 [Echinocystic acid] | 7.26 | 15 |
| NC(=O)CCC(N)C(=O)O (racemic) [DL-Glutamine] | 12.5 | 7.54 |
| O=C(O)/C=C/CCCCCCCO [10-Hydroxy-2-decenoic acid] | 16.3 | 5.06 |
| C[C@@H]1O[C@@H](O[C@@H]2[C@H](O)[C@@H](O)[C@H](O[C@H]3CC[C@@]4(C)C(CC[C@]5(C)C4C=C[C@]46OC[C@@]7(CCC(C)(C)CC74)[C@@H](O)C[C@]65C)C3(C)C)O[C@@H]2CO[C@@H]2O[C@H](CO)[C@@H](O)[C@H](O)[C@H]2O)[C@H](O)[C@H](O)[C@H]1O (stereo partly drawn) [Saikosaponin C] | -0.000153 | 4.57 |
| Nc1ncnc2c1ncn2[C@@H]1O[C@H](COP(=O)(O)OP(=O)(O)OP(=O)(O)O)[C@@H](O)[C@H]1O [Adenosine disodium triphosphate] | 7.47 | -10.6 |
| CC1(C)C(O[C@@H]2OC[C@@H](O)[C@H](O)[C@H]2O)CC[C@]23CC24CC[C@]2(C)[C@@H]([C@@]5(C)CC[C@@H](C(C)(C)O)O5)[C@H](O)C[C@@]2(C)C4C[C@@H](O[C@@H]2O[C@H](CO)[C@@H](O)[C@H](O)[C@H]2O)C13 (stereo partly drawn) [Astragaloside IV] | 8.4 | 5.58 |
| CC1=C(/C=C/C(C)=C/C=C/C(C)=C/C(=O)O)C(C)(C)CCC1 [Tretinoin] | -14.9 | 13.5 |
| CC(=O)c1c(O)c(C)c(O)c2c1OC1=CC(=O)C(C(C)=O)C(=O)C12C (stereo not drawn) [Usnic Acid] | -17.6 | 0.96 |
| COc1cc2c(c(OC)c1OC)-c1c(cc3c(c1OC)OCO3)C[C@H](C)[C@](C)(O)[C@H]2OC(=O)c1ccccc1 [Schisantherin A] | -2.44 | 7.22 |
| CCC(C)(C)C(=O)O[C@H]1C[C@@H](C)C=C2C=C[C@H](C)[C@H](CC[C@@H]3C[C@@H](O)CC(=O)O3)[C@H]21 [Simvastatin] | 58.9 | -14.7 |
| O=C(O)CCc1ccc(O)cc1O [Hydroumbellic acid] | 12.3 | 7.02 |
| COc1cc2c(c(OC)c1OC)-c1c(cc3c(c1OC)OCO3)CC(C)C(C)C2 (stereo not drawn) [Schizandrin B] | 3.76 | 0.141 |
| CC(C)(O)CC[C@@H](O)[C@](C)(O)[C@H]1CC[C@@]2(O)C3=CC(=O)[C@@H]4C[C@@H](O)[C@@H](O)C[C@]4(C)[C@H]3CC[C@]12C [Ecdysterone] | 5.48 | -10.5 |
| CC1(C)[C@@H](O)CC[C@]2(C)[C@H]3CC=C4[C@@H]5C[C@@]6(C)C[C@H](OC6=O)[C@]5(C)CC[C@@]4(C)[C@]3(C)CC[C@@H]12 [Wilforlide A] | 4.22 | -21.2 |
| Oc1ccc(CC2NCCc3cc(O)c(O)cc32)cc1 (stereo not drawn) [Higenamine Hydrochloride] | 7.82 | 4.38 |
| CC(C)c1cc(C(C)C)c(CC(=O)NS(=O)(=O)Oc2c(C(C)C)cccc2C(C)C)c(C(C)C)c1 [Avasimibe] | 45.8 | -14.8 |
| COC(=O)/C=C/c1ccc(O)cc1 [Methyl 4-hydroxycinnamate] | -64.4 | 5.23 |
| C[C@]12CCC(=O)C=C1CC[C@@H]1[C@@H]2CC[C@@]2(C)[C@H]1CC[C@]2(O)C(=O)CO [Cortodoxone] | 4.31 | -11.6 |
| C=C[C@@]1(C)CC(=O)[C@]2(O)[C@@]3(C)[C@@H](O)CCC(C)(C)[C@@H]3[C@H](O)[C@H](OC(C)=O)[C@@]2(C)O1 [Forskolin] | -22.9 | 6.7 |
| COc1ccc(-c2coc3cc(OC)ccc3c2=O)cc1 [4',7-Dimethoxyisoflavone] | 13 | 17.9 |
| O=c1c(-c2ccc(O)cc2)coc2cc(O)cc(O)c12 [Genistein] | 15.9 | -49.2 |
| CC[C@H](CC[C@@H](C)[C@H]1CC[C@H]2[C@@H]3CC=C4C[C@@H](O[C@@H]5O[C@H](CO)[C@@H](O)[C@H](O)[C@H]5O)CC[C@]4(C)[C@H]3CC[C@]12C)C(C)C [Eleutheroside A] | 15.3 | 14.4 |
| C=C[C@](C)(O)CC[C@@H]1[C@@]2(C)CCCC(C)(C)[C@@H]2CC[C@@]1(C)O [Sclareol] | 2.75 | -9.23 |
| O=C(O)[C@]1(O)C[C@@H](O)[C@@H](O)[C@H](O)C1 [Quinic acid] | -4 | -2.23 |
| O=C(O)/C=C/c1ccc(O)c(O)c1 [Caffeic Acid] | -5.78 | 4.98 |
| C=C1CC[C@H]2O[C@]2(C)CC[C@@H]2[C@@H]1CC2(C)C [Caryophyllene oxide] | 10.6 | -11.8 |
| CC1(C)O[C@H]2CC(=O)OC[C@]23[C@H]2CC[C@@]4(C)[C@H](c5ccoc5)OC(=O)[C@H]5O[C@]54[C@]2(C)C(=O)C[C@@H]13 [Limonin] | -1.69 | -8.23 |

| Structure (SMILES) | cell growth inhibition ratio [1] [%] | cell growth inhibition ratio [2] [%] |
| --- | --- | --- |
| N[C@@H](Cc1cc(I)c(Oc2cc(I)c(O)c(I)c2)c(I)c1)C(=O)O [L-Thyroxine] | 28.5 | -8.75 |
| C=C(C)[C@@H]1CC[C@]2(CO)CC[C@]3(C)[C@H](CC[C@@H]4[C@@]5(C)CC[C@H](O)C(C)(C)[C@@H]5CC[C@]43C)[C@@H]12 [Betulin] | -2.29 | 13.3 |
| O=C1C[C@@H](c2ccc(O[C@@H]3O[C@H](CO)[C@@H](O)[C@H](O)[C@H]3O)cc2)Oc2cc(O)ccc21 [Liquiritin] | -5.2 | -1.87 |
| CN[C@@H](C)[C@H]1[C@H](O)C[C@@]2(C)[C@@H]3CC[C@H]4C(C)(C)[C@@H](NC)CC[C@@]45C[C@@]35CC[C@]12C [Cyclovirobuxin D] | 1.23 | 10.2 |
| Cn1c(=O)c2nc[nH]c2n(C)c1=O [Theophylline] | 0.99 | 7.8 |
| CO[C@H]1C[C@H](O[C@H]2[C@H](C)O[C@@H](O[C@@H]3/C(C)=C/C[C@@H]4C[C@@H](C[C@]5(C=C[C@H](C)[C@@H](C6CCCCC6)O5)O4)OC(=O)[C@@H]4C=C(C)[C@@H](O)[C@H]5OC/C(=C\C=C\[C@@H]3C)[C@]54O)C[C@@H]2OC)O[C@@H](C)[C@@H]1O [Doramectin] | 6.82 | -3.96 |
| N[C@@H](Cc1ccc(O)c(O)c1)C(=O)O [Levodopa] | 8.33 | 8.32 |
| C[C@H](CCC(=O)NCCS(=O)(=O)O)[C@H]1CC[C@H]2[C@@H]3[C@H](O)C[C@@H]4C[C@H](O)CC[C@]4(C)[C@H]3C[C@H](O)[C@]12C [Taurocholic acid sodium salt hydrate] | -2.16 | -7.17 |
| C[C@H](CCC(=O)O)[C@H]1CC[C@H]2[C@@H]3C(=O)C[C@@H]4CC(=O)CC[C@]4(C)[C@H]3CC(=O)[C@]12C [Dehydrocholic acid] | 10 | -7.82 |
| O=C1c2c(O)cc(O)cc2O[C@H](c2cc(O)c(O)c(O)c2)[C@H]1O [Dihydromyricetin] | -2.05 | -1 |
| C[C@@H]1O[C@@H](O[C@H]2[C@H](O[C@H]3[C@H](O[C@H]4CC[C@]5(C)[C@H]6CC=C7[C@@H]8CC(C)(C)CC[C@]8(C(=O)O)CC[C@@]7(C)[C@]6(C)CC[C@H]5C4(C)C)OC[C@H](O)[C@@H]3O)O[C@H](CO)[C@@H](O)[C@@H]2O)[C@H](O)[C@H](O)[C@H]1O [Raddeanin(Anemodeanin) A] | 93.5 | 91.7 |
| COc1cc(/C=C/c2cc(O)cc(O)c2)ccc1O [Isorhapontigenin] | 52.8 | 11.4 |
| COc1cc2ccc(=O)oc2cc1OC [Scoparone] | -1.5 | -12.2 |
| CO[C@H]1C[C@@H]2CC[C@@H](C)[C@@](O)(O2)C(=O)C(=O)N2CCCC[C@H]2C(=O)O[C@H]([C@H](C)C[C@@H]2CC[C@@H](O)[C@H](OC)C2)CC(=O)[C@H](C)/C=C(\C)[C@@H](O)[C@@H](OC)C(=O)[C@H](C)C[C@H](C)/C=C/C=C/C=C/1C [Rapamycin (Sirolimus)] | 60.4 | 21.9 |
| O=c1cc(-c2ccccc2)oc2cc(O)cc(O)c12 [Chrysin] | 1.14 | -13.7 |
| COc1ccc(-c2coc3cc(O)cc(O)c3c2=O)cc1 [Biochanin A] | 15.2 | -4.52 |
| NCCC[C@H](N)C(=O)O [L-Ornithine] | -9.97 | -5.74 |
| COc1cc2oc(=O)ccc2cc1O | 8.25 | 0.237 |
| C[N+](C)(C)CC(O)CC(=O)[O-] (stereo not drawn) [L(-)-Carnitine] | 4.6 | 9.27 |
| O=C(/C=C/C=C/c1ccc2c(c1)OCO2)N1CCCCC1 [Piperine] | 4.23 | 4.32 |
| CC1(C)CC[C@]2(C(=O)O)CCC3=C([C@@H](CCl)C[C@@H]4[C@@]5(C)C[C@H](O)[C@H](O)[C@@](C)(C(=O)O)[C@@H]5CC[C@@]34C)[C@@H]2C1 [Senegenin] | 19.6 | 0.279 |
| COc1ccc(-c2coc3cc(O)ccc3c2=O)cc1 [Formononetin] | 11.4 | -8.4 |
| CC(C)C1=CC2=CC[C@@H]3[C@](C)(CCC[C@@]3(C)C(=O)O)[C@H]2CC1 [Abietic Acid] | 7.24 | 9.07 |
| COc1cc(/C=C/C(=O)O[C@H]2CC[C@]34C[C@]35CC[C@]3(C)[C@@H]([C@H](C)CCC=C(C)C)CC[C@@]3(C)[C@@H]5CC[C@H]4C2(C)C)ccc1O [Gamma-Oryzanol] | 9.42 | -7.49 |
| CC(C)(CO)[C@@H](O)C(=O)NCCCO [Dexpanthenol] | 12.1 | -7.26 |
| COc1cc(CCC(=O)CC(=O)CCc2ccc(O)c(OC)c2)ccc1O [Tetrahydro Curcumin] | 16.5 | -2.35 |
| COC(=O)c1ccccc1O [Methyl salicylate] | 10.8 | 4.69 |

Three entries from above, as tab-separated lines:
Structure (SMILES)	cell growth inhibition ratio [1] [%]	cell growth inhibition ratio [2] [%]
CO[C@H]1C[C@@H]2CC[C@@H](C)[C@@](O)(O2)C(=O)C(=O)N2CCCC[C@H]2C(=O)O[C@H]([C@H](C)C[C@@H]2CC[C@@H](O)[C@H](OC)C2)CC(=O)[C@H](C)/C=C(\C)[C@@H](O)[C@@H](OC)C(=O)[C@H](C)C[C@H](C)/C=C/C=C/C=C/1C [Rapamycin (Sirolimus)]	60.4	21.9
O=c1cc(-c2ccccc2)oc2cc(O)cc(O)c12 [Chrysin]	1.14	-13.7
COc1ccc(-c2coc3cc(O)cc(O)c3c2=O)cc1 [Biochanin A]	15.2	-4.52
